Molecules are shown by their SMILES.

In the assay the test system is p-Phenylquinone-induced agony (writhing response) in mice. Put plainly: animal or person. To be noted: Mus musculus, sc, 0.25 h, read-out: Analgesic effect (ED50, μg/kg sc) Phenylquinone-induced agony test. In kind it is in vivo, Male ddy mice.

For the compound `CN1CC[C@]23c4c5ccc(O)c4O[C@H]2[C@@H](O)C=C[C@H]3[C@H]1C5.Cl` [Morphine HCl, reference compound], the ED50 was found to be 480 µg/kg.

These data come from patent US5679674A (priority 1992, dated 1997).
